According to paper doi:10.1101/2020.10.20.346569:
Results are given in words; binding and its absence hold for the method and conditions named. For some of these results: Binding seen in cells or lysates may run through a third protein. Some entries that bind do so weakly or less than the wild type. For some of these results: Sequences can lack the tags named with a protein.

Amino acid sequences for entries named in this document (tags omitted). A change or cut given only in a name is not applied to a line headed by its entry. Chains listed by the source or under a name are the forms on record and can include a tag or linker.
UniProt P49841: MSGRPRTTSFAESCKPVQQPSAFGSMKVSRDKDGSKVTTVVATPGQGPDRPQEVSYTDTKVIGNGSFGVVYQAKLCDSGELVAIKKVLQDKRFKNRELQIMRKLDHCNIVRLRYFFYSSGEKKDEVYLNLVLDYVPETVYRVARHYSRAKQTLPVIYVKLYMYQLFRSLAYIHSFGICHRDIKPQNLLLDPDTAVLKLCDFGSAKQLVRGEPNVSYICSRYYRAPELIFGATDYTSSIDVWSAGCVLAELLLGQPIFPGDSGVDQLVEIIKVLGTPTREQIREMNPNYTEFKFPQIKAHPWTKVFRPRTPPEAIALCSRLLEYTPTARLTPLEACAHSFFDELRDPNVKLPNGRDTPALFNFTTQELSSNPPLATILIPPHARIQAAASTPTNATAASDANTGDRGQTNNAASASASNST
GST-GSK3β(Δ314-329) (P49841, form named): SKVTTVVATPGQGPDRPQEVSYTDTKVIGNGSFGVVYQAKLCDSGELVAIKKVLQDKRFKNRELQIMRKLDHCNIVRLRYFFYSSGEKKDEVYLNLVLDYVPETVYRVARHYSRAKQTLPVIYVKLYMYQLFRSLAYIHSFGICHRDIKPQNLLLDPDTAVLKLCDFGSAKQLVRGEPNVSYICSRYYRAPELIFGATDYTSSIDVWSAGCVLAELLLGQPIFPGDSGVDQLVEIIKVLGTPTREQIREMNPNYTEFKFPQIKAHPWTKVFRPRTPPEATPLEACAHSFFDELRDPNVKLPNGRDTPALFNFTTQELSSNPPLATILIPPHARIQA
UniProt O60573: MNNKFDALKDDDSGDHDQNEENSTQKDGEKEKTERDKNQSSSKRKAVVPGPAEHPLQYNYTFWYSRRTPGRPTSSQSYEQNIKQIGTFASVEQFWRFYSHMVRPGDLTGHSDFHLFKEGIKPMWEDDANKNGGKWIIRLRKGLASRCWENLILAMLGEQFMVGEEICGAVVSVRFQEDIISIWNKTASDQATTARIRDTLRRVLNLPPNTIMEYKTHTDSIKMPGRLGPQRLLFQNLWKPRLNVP
GST-eIF4E2(Δ231-242) (O60573, form named): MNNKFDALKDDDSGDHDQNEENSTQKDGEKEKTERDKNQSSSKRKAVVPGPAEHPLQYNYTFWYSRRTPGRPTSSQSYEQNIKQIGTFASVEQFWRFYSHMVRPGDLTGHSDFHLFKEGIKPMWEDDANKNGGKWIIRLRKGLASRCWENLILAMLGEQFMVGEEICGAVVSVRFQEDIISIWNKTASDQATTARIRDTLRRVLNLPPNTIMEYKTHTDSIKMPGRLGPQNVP

Columns and labels:
[1] = target: GST-GSK3β(Δ314-329) (UniProt P49841); test: pull-down
[2] = target: T1, GST-RBM38 (UniProt Q9H0Z9); test: pull-down
T1 sequence: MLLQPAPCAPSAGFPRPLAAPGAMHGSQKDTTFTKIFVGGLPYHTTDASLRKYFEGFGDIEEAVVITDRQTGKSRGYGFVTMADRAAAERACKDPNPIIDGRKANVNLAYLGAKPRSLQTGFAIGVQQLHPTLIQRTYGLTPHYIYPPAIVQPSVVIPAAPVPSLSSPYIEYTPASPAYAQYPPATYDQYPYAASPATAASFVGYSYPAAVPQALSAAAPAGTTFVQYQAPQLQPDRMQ

[3] = target: GSK3β-HOTag6 (UniProt P49841); test: SPPIER
[4] = target: endogenous GSK3β (not stated (endogenous, cell line not named)) (UniProt P49841); test: co-IP
[5] = target: T2, endogenous RBM38 (not stated (endogenous, cell line not named)) (UniProt Q9H0Z9); test: co-IP
T2 sequence: T1 sequence

[6] = target: GST-eIF4E2(Δ231-242) (UniProt O60573); test: pull-down
[7] = target: GST-eIF4E2 (UniProt O60573); test: pull-down

His-eIF4E2 (from UniProt O60573 1-245)
binding [1]: no binding
binding [2]: binds

EGFP-eIF4E2-HOTag3 (from UniProt O60573 1-245)
binding [3]: binds

endogenous eIF4E2 (from UniProt O60573 1-245)
binding [4]: binds
binding [5]: binds

His-GSK3β (from UniProt P49841 35-386) (enzyme)
binding [6]: no binding
binding [7]: binds
